Experimental data taken from PMC10958842.
No constants are given. Whether binding was seen depends on the method and setting. In cells and extracts the contact can be indirect. Some binding calls cover weakened binding; strength is not graded here.

Target: T1, THOC6 (human (endogenous in GBC cells)) (UniProt Q86W42)
T1 sequence: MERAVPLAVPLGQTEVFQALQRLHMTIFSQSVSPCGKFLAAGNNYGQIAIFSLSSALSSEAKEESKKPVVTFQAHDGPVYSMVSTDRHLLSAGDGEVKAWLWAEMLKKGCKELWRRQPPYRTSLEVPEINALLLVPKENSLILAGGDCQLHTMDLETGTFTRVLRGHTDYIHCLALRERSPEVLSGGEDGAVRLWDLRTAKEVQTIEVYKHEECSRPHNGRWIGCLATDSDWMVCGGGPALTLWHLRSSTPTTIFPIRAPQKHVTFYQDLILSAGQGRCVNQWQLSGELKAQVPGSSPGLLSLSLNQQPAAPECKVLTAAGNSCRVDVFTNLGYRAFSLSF
Assay: co-IP; antibody on protein A/G magnetic beads incubated with cell lysate at 4 °C overnight, washed three times with lysis buffer, western blot; GBC cells (NOZ); also after knockdown or overexpression of lncBCL2L11 in the cells and after exogenous reduction or increase of lncBCL2L11 in the lysate

- binding: binds
B1: THOC5 (protein, UniProt Q13769 1-683)
chain: MSSESSKKRKPKVIRSDGAPAEGKRNRSDTEQEGKYYSEEAEVDLRDPGRDYELYKYTCQELQRLMAEIQDLKSRGGKDVAIEIEERRIQSCVHFMTLKKLNRLAHIRLKKGRDQTHEAKQKVDAYHLQLQNLLYEVMHLQKEITKCLEFKSKHEEIDLVSLEEFYKEAPPDISKAEVTMGDPHQQTLARLDWELEQRKRLAEKYRECLSNKEKILKEIEVKKEYLSSLQPRLNSIMQASLPVQEYLFMPFDQAHKQYETARHLPPPLYVLFVQATAYGQACDKTLSVAIEGSVDEAKALFKPPEDSQDDESDSDAEEEQTTKRRRPTLGVQLDDKRKEMLKRHPLSVMLDLKCKDDSVLHLTFYYLMNLNIMTVKAKVTTAMELITPISAGDLLSPDSVLSCLYPGDHGKKTPNPANQYQFDKVGILTLSDYVLELGHPYLWVQKLGGLHFPKEQPQQTVIADHSLSASHMETTMKLLKTRVQSRLALHKQFASLEHGIVPVTSDCQYLFPAKVVSRLVKWVTVAHEDYMELHFTKDIVDAGLAGDTNLYYMALIERGTAKLQAAVVLNPGYSSIPPVFQLCLNWKGEKTNSNDDNIRAMEGEVNVCYKELCGPWPSHQLLTNQLQRLCVLLDVYLETESHDDSVEGPKEFPQEKMCLRLFRGPSRMKPFKYNHPQGFFSHR
